Reference: patent publication US20170204102A1, “AGRICULTURAL AGENT CONTAINING 2,5-DIKETOPIPERAZINE DERIVATIVE AS ACTIVE INGREDIENT” (NAPRO BIOTEC INC., priority 2010, published 2017)
At least one compound was matched to its structure with a doubt left.

System: Pectobacterium carotovorum SCC1
Experiment: Inhibition of naturally occurring soft rot in Chinese cabbage hydrocultured in summer
Assay type: in vivo
Settings: Table 11, FIG. 10
Text: After spraying test compounds to hydrocultured Chinese cabbage, naturally occurring soft rot was examined 1 week later.

CC1NC(=O)C2CCCN2C1=O (stereo not shown) [Compound No. 25, 3-methylhexahydropyrrolo[1,2-a]pyrazin-1,4-dione]
Inhibitory effect against soft rot in Chinese cabbage (in words): very superior inhibitory effect
